Source: patent US6579686B2, “Constitutive androstane receptor” (SmithKline Beecham Corporation, priority 2000, dated 2003)
At least one structure is not confirmed: it was looked up by name or label, or the drawing left a doubt.

Biological target: T1, hCAR LBD (Homo sapiens, UniProt Q14994)
T1 construct: or 103-348 of hCAR; made in house; host or cells: E. coli BL21(DE3), pRSETa
T1 sequence (Q14994 103-348 isoform Q14994-2): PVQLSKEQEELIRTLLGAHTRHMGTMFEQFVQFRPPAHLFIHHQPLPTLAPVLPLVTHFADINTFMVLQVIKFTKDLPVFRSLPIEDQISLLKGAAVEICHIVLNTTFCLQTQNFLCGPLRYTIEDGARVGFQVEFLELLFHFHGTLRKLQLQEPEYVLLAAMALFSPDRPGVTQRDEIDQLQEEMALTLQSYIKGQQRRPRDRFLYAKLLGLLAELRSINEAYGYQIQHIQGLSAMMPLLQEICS
Experiment: Scintillation proximity binding assay with [3H]clotrimazole
Settings: 10 nM [3H]clotrimazole, competitor at 1 mM

## CCC1(c2ccccc2)C(=O)NC(=O)NC1=O [PB, phenobarbital]
  competition with [3H]clotrimazole for binding to hCAR (in words): did not compete
